Results are given in words; binding and its absence hold for the method and conditions named. Binding calls can cover weak binding; strength is not graded here.
Target: human CD3 (on human CD3 positive T cell lines) (human)
Experiment: FACS, HPB-ALL cells, periplasmic supernatant

B1: anti-CD3 single domain antibody CD3 3D-H11 (VHH)
VHH: EVQLVESGGGLVQPGGSLRLSCAASGFTFDDYGMSWVRQAPGKWLEWVSDISWNGGSTYYADSVKGRFTISRDNAENTLYLQMNSLKPDDTAVYYCAKMGEGGWGANDYWGQGTQVTVSS
  binding: binds

— patent US20220041736A1
